Test results reported in PubChem BioAssay AID588499 (NMMLSC, 2011).
Out of some 360,000 compounds screened, about 610 (0.17%) were called active. This list was built around the results that the source calls inconclusive (neither active nor inactive); the mix of calls is not that of the screen. Rule as the data show it: active = inhibition above about 30%; inconclusive = no clear call, values can overlap the other calls; inactive = below that.

Test system: Botulinum neurotoxin type A light chain protease (Clostridium botulinum A str. ATCC 3502)
Experiment: blockers of BoNT/A LC substrate cleavage – biochemical, flow cytometry, MLPCN library, primary screen (AID 588499); also: plate controls were buffer without enzyme for full effect and enzyme alone for no effect
Conditions: multiplex microsphere protease substrate cleavage, at 10 µM, stronger effect = higher value

SMILES	inhibition
c1ccc(Cc2nnc3sc(Nc4ccccc4)nn23)cc1	inconclusive: -1.5%
O=C(CN1CCN(c2ccc(Cl)cc2[N+](=O)[O-])CC1)N1CCOCC1	inconclusive: 1.4%
Cn1c(=O)c2c(nc(CN3CCN(c4ccccc4)CC3)n2Cc2c(F)cccc2Cl)n(C)c1=O	inconclusive: -0.1%
CSCCC(=O)Nc1nc(-c2ccccn2)cs1	inactive: -0.9%
COc1cc(OC)cc(C(=O)NC2CC3CCC(C2)N3C)c1 (stereo unspecified)	inconclusive: -0.4%
Cc1cccc(-n2nc3c(c2NC(=O)c2ccc(S(=O)(=O)N4CCOCC4)cc2)CSC3)c1C	inconclusive: -0.7%
Cc1nc(SCc2nc3ccc(Br)cc3[nH]2)c2oc3ccccc3c2n1	inactive: -0.1%
O=C(Nc1cccnc1)c1c(F)cccc1F	inconclusive: -2.7%
O=C(NN=Cc1ccccc1C(=O)O)c1cccc(S(=O)(=O)Nc2cccc(C(F)(F)F)c2)c1	inactive: 0.3%
O=C(NCc1cccs1)C1CCCN1S(=O)(=O)c1ccccc1F (stereo unspecified)	inconclusive: 3.1%
Cc1cc(C)c(C#N)c(OCC(=O)c2ccc(Br)cc2)n1	inconclusive: -0.6%
S=C1NC[C@H](Cc2ccccc2)N1CCc1cccc2ccccc12	inactive: -0.1%
CC1(C(=O)O)CCC(C(=O)NC2CCCCCC2)C1(C)C (stereo unspecified)	inactive: 4.6%
NC(=O)CN1C(=O)NC2(CCCc3sccc32)C1=O (stereo unspecified)	inactive: -1.8%
CCN(CC)S(=O)(=O)c1ccc(NC(=O)c2ccccc2N(C)S(C)(=O)=O)cc1	inconclusive: 1.5%
Cc1cccc(CC(=O)NCCn2c(C)cc3ccccc32)c1	active: 88.9%
O=C1NC(=O)C(=Cc2ccccc2OCCOc2ccc([N+](=O)[O-])cc2)C(=O)N1	inactive: -0.1%
COc1ccccc1N1CCN(C(=O)Cc2cccs2)CC1	inconclusive: -0.3%
Cc1ccc(CNC(=O)CN2C(=O)C3(OCCCO3)c3ccccc32)cc1	active: 37.7%
CC(C)[N+](C)(C)CC#CC(O)(c1ccccc1)c1ccccc1	inconclusive: 6.5%
CN1CCN(C(=O)Cc2ccccc2)CC1	inconclusive: 1.5%
Cc1ccc(F)cc1NC(=O)c1cccc(N(C)C)c1	inconclusive: -2.6%
O=C(NCC1CCCCC1)c1ccco1	inconclusive: -5.5%
COc1ccc(NC(=O)C2=NN(c3ccccc3)C(=O)CC2)cn1	inactive: -1.3%
Cc1cc(=O)n2ccccc2c1C#N	inconclusive: 2.8%
COc1ccccc1NC(=O)C(=O)NCC(c1ccco1)N1CCc2ccccc2C1 (stereo unspecified)	inconclusive: 0.3%

As a short view, some entries already given:
SMILES	inhibition
Cc1ccc(CNC(=O)CN2C(=O)C3(OCCCO3)c3ccccc32)cc1	active: 37.7%
CC(C)[N+](C)(C)CC#CC(O)(c1ccccc1)c1ccccc1	inconclusive: 6.5%
